Experimental data reported in the supplement of paper PMC10849652.
The other results are listed elsewhere or left out.

Amino acid sequences for entries named in this document (tags omitted). A change or cut given only in a name is not applied to a line headed by its entry.
UniProt Q92536: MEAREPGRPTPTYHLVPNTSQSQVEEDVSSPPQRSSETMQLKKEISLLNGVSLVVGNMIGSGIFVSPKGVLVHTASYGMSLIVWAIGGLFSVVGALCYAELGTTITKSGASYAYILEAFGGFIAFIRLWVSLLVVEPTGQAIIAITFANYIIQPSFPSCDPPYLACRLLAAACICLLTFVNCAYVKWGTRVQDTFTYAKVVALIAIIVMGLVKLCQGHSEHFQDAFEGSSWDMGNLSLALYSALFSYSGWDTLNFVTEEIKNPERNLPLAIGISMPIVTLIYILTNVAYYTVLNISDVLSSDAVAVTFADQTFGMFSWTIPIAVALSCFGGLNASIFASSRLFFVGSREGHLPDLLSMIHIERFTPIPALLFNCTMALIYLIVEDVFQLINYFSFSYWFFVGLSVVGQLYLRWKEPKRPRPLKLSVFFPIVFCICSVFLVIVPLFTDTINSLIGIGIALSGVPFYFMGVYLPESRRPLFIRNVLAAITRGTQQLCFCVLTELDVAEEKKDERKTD
UniProt Q6PML9: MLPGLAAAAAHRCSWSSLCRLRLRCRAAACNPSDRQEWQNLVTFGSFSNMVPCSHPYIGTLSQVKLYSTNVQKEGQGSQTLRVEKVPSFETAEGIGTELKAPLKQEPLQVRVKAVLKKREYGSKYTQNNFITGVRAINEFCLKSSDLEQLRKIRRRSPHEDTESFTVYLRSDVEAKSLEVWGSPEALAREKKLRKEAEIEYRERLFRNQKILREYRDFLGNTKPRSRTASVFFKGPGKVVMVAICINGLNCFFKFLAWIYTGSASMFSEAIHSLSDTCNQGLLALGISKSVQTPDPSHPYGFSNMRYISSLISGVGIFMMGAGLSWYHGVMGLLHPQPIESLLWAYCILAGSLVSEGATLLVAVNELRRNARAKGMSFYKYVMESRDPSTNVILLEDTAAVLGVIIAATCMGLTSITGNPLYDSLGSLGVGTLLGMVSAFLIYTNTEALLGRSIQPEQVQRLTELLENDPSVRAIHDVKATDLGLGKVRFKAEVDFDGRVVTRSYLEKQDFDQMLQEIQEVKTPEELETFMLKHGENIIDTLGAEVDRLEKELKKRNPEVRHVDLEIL
UniProt O95391: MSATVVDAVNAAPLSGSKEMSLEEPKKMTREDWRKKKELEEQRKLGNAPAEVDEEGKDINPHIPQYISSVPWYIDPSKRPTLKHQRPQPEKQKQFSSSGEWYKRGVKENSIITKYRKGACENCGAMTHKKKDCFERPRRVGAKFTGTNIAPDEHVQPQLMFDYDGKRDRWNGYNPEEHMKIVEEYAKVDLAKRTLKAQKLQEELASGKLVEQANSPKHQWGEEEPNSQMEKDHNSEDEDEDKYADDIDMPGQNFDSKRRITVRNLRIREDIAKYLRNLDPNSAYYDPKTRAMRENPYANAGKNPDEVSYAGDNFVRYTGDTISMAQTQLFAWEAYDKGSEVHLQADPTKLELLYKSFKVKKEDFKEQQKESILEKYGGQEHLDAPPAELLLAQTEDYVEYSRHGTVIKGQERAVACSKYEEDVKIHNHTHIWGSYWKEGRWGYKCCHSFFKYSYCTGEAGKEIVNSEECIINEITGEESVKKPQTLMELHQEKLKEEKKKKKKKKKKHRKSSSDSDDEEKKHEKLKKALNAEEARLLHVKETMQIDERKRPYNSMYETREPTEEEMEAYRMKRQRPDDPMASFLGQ
UniProt P05141: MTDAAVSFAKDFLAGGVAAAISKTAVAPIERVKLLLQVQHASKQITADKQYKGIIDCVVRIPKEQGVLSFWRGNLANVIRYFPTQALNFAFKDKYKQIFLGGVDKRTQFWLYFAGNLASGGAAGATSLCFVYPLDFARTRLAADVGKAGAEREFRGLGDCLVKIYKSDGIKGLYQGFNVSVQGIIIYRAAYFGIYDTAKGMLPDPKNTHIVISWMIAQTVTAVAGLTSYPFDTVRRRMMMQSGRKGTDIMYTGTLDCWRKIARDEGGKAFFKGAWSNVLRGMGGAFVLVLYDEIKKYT
UniProt Q13485: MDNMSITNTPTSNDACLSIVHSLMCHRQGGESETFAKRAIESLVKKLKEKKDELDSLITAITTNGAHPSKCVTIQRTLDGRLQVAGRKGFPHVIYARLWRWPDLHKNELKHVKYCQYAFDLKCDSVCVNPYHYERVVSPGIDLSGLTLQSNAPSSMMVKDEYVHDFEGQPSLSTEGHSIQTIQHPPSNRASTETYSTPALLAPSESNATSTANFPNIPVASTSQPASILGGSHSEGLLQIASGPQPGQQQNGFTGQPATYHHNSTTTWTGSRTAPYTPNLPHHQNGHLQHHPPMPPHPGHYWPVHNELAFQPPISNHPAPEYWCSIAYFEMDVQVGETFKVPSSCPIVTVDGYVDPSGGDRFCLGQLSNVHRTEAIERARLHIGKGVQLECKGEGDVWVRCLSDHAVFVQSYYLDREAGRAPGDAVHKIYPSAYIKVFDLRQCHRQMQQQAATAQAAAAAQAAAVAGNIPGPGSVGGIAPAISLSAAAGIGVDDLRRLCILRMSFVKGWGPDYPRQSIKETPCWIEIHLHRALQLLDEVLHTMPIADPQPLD
UniProt P50443: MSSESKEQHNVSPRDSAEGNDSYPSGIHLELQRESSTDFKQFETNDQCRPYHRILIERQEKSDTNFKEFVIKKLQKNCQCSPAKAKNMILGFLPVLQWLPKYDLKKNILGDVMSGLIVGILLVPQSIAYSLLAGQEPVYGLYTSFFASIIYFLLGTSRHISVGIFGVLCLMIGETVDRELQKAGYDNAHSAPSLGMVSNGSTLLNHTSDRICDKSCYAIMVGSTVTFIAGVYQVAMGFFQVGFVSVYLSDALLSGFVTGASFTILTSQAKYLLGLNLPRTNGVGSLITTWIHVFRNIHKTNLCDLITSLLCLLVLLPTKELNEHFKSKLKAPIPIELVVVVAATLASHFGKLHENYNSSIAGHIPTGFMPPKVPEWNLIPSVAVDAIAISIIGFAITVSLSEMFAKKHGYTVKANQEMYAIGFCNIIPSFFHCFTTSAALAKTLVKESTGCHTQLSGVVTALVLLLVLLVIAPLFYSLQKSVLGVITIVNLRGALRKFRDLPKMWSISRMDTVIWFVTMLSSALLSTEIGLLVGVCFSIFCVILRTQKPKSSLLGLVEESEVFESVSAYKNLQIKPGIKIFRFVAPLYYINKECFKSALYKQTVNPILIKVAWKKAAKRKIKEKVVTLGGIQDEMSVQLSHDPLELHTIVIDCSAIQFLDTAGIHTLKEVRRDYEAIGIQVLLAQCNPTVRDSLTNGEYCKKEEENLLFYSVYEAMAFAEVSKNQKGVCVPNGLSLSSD
UniProt Q8N1S5: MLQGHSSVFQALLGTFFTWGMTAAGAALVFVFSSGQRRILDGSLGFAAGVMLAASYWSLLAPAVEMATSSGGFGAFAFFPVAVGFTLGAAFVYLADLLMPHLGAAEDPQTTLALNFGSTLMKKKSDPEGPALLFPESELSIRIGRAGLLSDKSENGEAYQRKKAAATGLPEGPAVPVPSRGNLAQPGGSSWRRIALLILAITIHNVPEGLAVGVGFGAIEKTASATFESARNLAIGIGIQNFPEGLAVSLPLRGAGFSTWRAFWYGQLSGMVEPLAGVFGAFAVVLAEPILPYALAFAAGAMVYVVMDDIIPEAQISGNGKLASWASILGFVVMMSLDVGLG
UniProt Q6KCM7: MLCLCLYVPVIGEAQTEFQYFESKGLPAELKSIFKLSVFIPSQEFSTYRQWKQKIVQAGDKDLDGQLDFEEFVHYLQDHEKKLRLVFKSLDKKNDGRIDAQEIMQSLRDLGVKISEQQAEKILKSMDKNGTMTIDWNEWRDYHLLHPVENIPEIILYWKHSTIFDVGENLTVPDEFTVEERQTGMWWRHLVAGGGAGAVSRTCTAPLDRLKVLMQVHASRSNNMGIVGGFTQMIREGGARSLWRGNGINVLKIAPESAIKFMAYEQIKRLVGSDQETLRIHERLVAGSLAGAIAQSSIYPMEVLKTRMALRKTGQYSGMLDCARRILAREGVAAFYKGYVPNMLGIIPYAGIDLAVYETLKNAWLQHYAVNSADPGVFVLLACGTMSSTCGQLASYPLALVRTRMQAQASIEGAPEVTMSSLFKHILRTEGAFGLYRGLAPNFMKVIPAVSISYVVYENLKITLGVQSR
UniProt O00193: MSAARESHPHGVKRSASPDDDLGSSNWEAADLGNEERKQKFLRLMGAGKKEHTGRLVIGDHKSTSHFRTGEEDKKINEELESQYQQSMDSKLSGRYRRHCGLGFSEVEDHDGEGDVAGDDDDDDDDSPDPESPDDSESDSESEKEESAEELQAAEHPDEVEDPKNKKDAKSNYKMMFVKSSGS
UniProt Q8N357: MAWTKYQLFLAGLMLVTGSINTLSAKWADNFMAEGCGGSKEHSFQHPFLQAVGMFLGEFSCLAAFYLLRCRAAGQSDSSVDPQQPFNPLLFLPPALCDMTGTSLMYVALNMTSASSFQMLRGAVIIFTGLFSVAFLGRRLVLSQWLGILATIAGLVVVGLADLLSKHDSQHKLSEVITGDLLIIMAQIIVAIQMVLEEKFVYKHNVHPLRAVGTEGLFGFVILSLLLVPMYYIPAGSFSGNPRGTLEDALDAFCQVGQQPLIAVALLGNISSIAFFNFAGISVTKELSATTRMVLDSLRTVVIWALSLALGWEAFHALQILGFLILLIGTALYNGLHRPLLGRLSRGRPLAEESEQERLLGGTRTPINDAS
UniProt Q14542: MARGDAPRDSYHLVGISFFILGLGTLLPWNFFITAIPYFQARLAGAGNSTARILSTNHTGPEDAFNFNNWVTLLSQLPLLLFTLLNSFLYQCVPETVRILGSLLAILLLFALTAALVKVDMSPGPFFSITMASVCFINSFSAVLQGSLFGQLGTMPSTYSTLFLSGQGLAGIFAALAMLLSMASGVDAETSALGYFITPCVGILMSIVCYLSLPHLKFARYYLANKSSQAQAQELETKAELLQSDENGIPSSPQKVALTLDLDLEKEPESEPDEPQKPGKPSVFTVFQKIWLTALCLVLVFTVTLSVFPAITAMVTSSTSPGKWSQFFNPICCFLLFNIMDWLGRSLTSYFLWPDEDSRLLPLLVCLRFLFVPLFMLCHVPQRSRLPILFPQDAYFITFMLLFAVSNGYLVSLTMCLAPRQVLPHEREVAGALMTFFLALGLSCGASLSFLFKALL
UniProt Q5BKX6: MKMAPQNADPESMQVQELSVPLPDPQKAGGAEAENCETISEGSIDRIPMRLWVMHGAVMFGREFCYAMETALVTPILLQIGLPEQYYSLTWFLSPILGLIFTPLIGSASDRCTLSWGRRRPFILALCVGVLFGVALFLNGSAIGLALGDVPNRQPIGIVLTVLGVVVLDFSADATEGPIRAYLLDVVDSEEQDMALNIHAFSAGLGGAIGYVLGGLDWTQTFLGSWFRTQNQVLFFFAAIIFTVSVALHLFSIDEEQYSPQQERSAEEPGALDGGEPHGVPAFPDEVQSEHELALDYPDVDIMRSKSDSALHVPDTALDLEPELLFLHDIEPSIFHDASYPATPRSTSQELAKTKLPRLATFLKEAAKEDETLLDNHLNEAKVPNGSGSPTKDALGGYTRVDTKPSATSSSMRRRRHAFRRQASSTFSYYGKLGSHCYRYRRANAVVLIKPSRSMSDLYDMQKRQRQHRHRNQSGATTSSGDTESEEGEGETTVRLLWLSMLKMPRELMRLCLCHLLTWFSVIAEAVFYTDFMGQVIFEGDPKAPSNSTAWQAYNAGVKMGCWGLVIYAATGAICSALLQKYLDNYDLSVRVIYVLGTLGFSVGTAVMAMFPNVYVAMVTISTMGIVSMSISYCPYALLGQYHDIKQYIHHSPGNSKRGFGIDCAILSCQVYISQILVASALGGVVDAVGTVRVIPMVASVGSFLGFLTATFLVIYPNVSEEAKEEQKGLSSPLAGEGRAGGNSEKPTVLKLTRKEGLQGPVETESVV
UniProt Q9NYZ2: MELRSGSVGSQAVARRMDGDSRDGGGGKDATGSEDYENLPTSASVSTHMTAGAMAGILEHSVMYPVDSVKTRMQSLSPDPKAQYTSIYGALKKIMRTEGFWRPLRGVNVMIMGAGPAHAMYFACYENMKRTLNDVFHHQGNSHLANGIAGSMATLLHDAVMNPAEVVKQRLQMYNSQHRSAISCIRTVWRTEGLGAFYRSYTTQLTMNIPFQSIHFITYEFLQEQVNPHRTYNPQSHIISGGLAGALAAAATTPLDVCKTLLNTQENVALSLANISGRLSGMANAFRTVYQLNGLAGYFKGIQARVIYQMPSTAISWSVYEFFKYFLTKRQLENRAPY
UniProt Q02978: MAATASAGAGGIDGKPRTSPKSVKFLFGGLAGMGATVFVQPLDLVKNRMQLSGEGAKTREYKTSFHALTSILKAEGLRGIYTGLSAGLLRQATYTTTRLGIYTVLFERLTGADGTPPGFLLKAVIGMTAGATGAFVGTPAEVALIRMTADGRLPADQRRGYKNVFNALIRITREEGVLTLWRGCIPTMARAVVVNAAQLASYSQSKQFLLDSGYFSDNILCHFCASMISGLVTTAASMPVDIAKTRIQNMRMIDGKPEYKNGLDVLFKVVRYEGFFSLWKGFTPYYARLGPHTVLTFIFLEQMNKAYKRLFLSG

Key:
Assay in all cases: log2 fold change, soluble protein after heating vs DMSO (PISA); higher = thermal stabilisation; K562 lysate, 10 uM; active = over 0.2 and 3.5 SD of the protein, either way, in both replicates (recomputed)
erlotinib = compound: C#Cc1cccc(Nc2ncnc3cc(OCCOC)c(OCCOC)cc23)c1 [erlotinib]
Procedure, shortened: (§1)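 Dounce homogenisation of K562 pellets in PBS pH 7.4 with 1 mM MgCl2 produced a crude extract, used at 1 mg/mL protein. Exposure to 10 μM compound lasted 30 min, and aliquots were then heated for 3 min across 48°C-58°C, pooled and brought to 0.5% NP-40 at 4°C. The supernatant after 21,000xg for 90 min was quantified by TMTpro 16plex LC-MS/MS with channel sums equalised. Duplicate values are given as log-two fold change in thermal stability relative to solvent controls.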

[1] = compound: C/C(=N\NC(=O)C1=CC(=CC=C1)S(=O)(=O)N2CCOCC2)/C3=C(C=CC(=C3)Cl)O
Procedure, shortened: as §1

[2] = compound: C1=CC(=CC=C1C2=NC3=C(N2)C=C(C=C3)C(=O)N)OC4=CC=C(C=C4)Cl
Procedure, shortened: as §1

[3] = compound: C1=CC2=C(C=CC(=C2)/C=C\3/C(=O)NC(=NCC4=CC=CS4)S3)N=C1
Procedure, shortened: as §1

[4] = compound: C1=CC2=NC=CN=C2C=C1/C=C/3\C(=O)NC(=O)S3
Procedure, shortened: as §1

[5] = compound: C1=CC=C(C=C1)C2=NC(=C(N2)C3=CC=NC=C3)C4=CC(=C(C=C4)Cl)O
Procedure, shortened: as §1

[6] = compound: C1=CC=C2C(=C1)C3=NNC4=CC=CC(=C43)C2=O
Procedure, shortened: as §1

[7] = compound: C1CCN(C1)C(=O)NC2=CC=CC(=C2)NC3=NC=C(C(=N3)NCCC4=CN=CN4)Br
Procedure, shortened: as §1

[8] = compound: C1CN(CCC1(CC2=CC=C(C=C2)Cl)N)C3=NC=NC4=C3C=CN4
Procedure, shortened: as §1

IRAK-1-4 Inhibitor I = compound: C1COCCN1CCN2C3=CC=CC=C3N=C2NC(=O)C4=CC(=CC=C4)[N+](=O)[O-] [IRAK-1-4 Inhibitor I]
Procedure, shortened: as §1

Target	log2 fold change (erlotinib)	log2 fold change [1]	log2 fold change [2]	log2 fold change [3]	log2 fold change [4]	log2 fold change [5]	log2 fold change [6]	log2 fold change [7]	log2 fold change [8]	log2 fold change (IRAK-1-4 Inhibitor I)
SLC7A6 (UniProt Q92536)	inactive: 0.085	inactive: -0.049	inactive: 0.079	inactive: -0.073	inactive: -0.049	inactive: -0.026	inactive: 0.003	inactive: -0.095	inactive: 0.086	inactive: 0.046
SLC6A8 isoform 2 (UniProt P48029)	inactive: 0.069	inactive: -0.026	inactive: 0.086	inactive: -0.012	inactive: 0.025	inactive: -0.009	inactive: 0.034	inactive: 0.001	inactive: 0.028	inactive: 0.083
SLC30A9 (UniProt Q6PML9)	inactive: -0.023	inactive: 0.039	inactive: -0.17	inactive: -0.079	inactive: 0.017	inactive: -0.012	inactive: -0.023	inactive: -0.056	inactive: 0.1	inactive: -0.005
SLU7 (UniProt O95391)	inactive: -0.02	inactive: -0.086	inactive: -0.021	inactive: 0.09	inactive: -0.026	inactive: 0.021	inactive: 0.036	inactive: -0.096	inactive: -0.041	inactive: -0.07
SLC6A6 (UniProt P31641)	inactive: -0.016	inactive: -0.042	inactive: 0.023	inactive: -0.153	inactive: -0.013	inactive: -0.071	inactive: 0.031	inactive: -0.034	inactive: 0.042	inactive: 0.03
SLK isoform 2 (UniProt Q9H2G2)	inactive: 0.115	inactive: -0.018	inactive: -0.026	inactive: 0.064	inactive: 0.068	inactive: 0.081	inactive: 0.007	inactive: 0.045	inactive: 0.021	inactive: 0.001
SLC25A26 (UniProt Q70HW3)	inactive: -0.003	inactive: -0.278	inactive: -0.028	inactive: -0.023	inactive: -0.058	inactive: 0.09	inactive: 0.033	inactive: -0.06	inactive: 0.067	inactive: 0.06
SLC25A5 (UniProt P05141)	inactive: 0.005	inactive: 0.034	inactive: 0.062	inactive: -0.021	inactive: 0.039	inactive: 0.003	inactive: 0.013	inactive: 0.008	inactive: -0.014	inactive: 0.015
SMAD4 (UniProt Q13485)	inactive: 0.003	inactive: 0.141	inactive: 0.024	inactive: -0.019	inactive: -0.022	inactive: 0.028	inactive: -0.038	inactive: -0.011	inactive: -0.005	inactive: 0
SLC25A32 (UniProt Q9H2D1)	inactive: 0.035	inactive: 0.02	inactive: -0.062	inactive: 0.011	inactive: -0.013	inactive: -0.027	inactive: 0.056	inactive: 0.018	inactive: -0.002	inactive: 0.029
SLC27A2 (UniProt O14975)	inactive: -0.025	active: 0.478	inactive: -0.122	inactive: 0.099	inactive: 0.048	inactive: 0.007	inactive: -0.016	inactive: -0.038	inactive: -0.035	active: 0.614
SLC25A1 (UniProt P53007)	inactive: 0.053	inactive: 0.031	inactive: 0.057	inactive: 0.037	inactive: 0	inactive: 0.033	inactive: 0.013	inactive: -0.01	inactive: -0.01	inactive: -0.005
SLC26A2 (UniProt P50443)	inactive: -0.06	inactive: -0.007	inactive: -0.138	inactive: 0.04	inactive: 0.089	inactive: -0.164	inactive: 0.039	inactive: 0.019	inactive: 0.15	inactive: 0.09
SLMAP isoform 3 (UniProt Q14BN4)	inactive: 0.003	inactive: -0.029	inactive: -0.026	inactive: -0.014	inactive: -0.036	inactive: 0.05	inactive: -0.006	inactive: -0.048	inactive: -0.039	inactive: -0.009
SLC39A7 (UniProt Q92504)	inactive: 0.009	inactive: 0.038	inactive: 0.043	inactive: -0.049	inactive: -0.003	inactive: -0.043	inactive: -0.062	inactive: 0.01	inactive: 0.003	inactive: 0.006
SLC39A3 (UniProt Q9BRY0)	inactive: 0.047	inactive: 0.045	inactive: -0.014	inactive: -0.003	inactive: 0.014	inactive: -0.033	inactive: 0.025	inactive: 0.023	inactive: 0.064	inactive: -0.062
SLC39A11 (UniProt Q8N1S5)	inactive: -0.093	inactive: 0.116	inactive: -0.047	inactive: -0.139	inactive: -0.071	inactive: 0.05	inactive: 0.062	active: 0.385	inactive: 0.058	inactive: -0.053
SLC25A17 (UniProt O43808)	inactive: 0.035	inactive: 0.057	inactive: 0.061	inactive: 0.014	inactive: -0.015	inactive: 0.012	inactive: -0.021	inactive: 0.012	inactive: 0.03	inactive: 0.056
SLC25A25 isoform 3 (UniProt Q6KCM7)	inactive: -0.029	inactive: 0.054	inactive: -0.038	inactive: 0.039	inactive: -0.003	inactive: -0.027	inactive: 0.01	inactive: 0.011	inactive: -0.026	inactive: -0.041
SMAP (UniProt O00193)	inactive: 0.007	inactive: 0.008	inactive: 0.066	inactive: -0.016	inactive: -0.001	inactive: 0	inactive: 0.009	inactive: 0.061	inactive: 0.013	inactive: -0.01
SLC35F6 (UniProt Q8N357)	inactive: 0.029	inactive: -0.129	inactive: 0.068	inactive: 0.094	inactive: 0.022	inactive: -0.02	inactive: -0.105	inactive: 0.078	inactive: -0.045	inactive: -0.009
SLC25A20 (UniProt O43772)	inactive: 0.033	inactive: 0.095	inactive: -0.006	inactive: 0.021	inactive: -0.038	inactive: -0.017	inactive: -0.015	inactive: 0.014	inactive: -0.06	inactive: 0.054
SLC29A2 (UniProt Q14542)	inactive: -0.147	inactive: 0.016	inactive: -0.04	inactive: 0.013	inactive: -0.028	inactive: -0.033	inactive: 0.018	inactive: 0.018	inactive: 0.085	inactive: 0.102
SLC45A4 isoform 3 (UniProt Q5BKX6)	inactive: 0.027	inactive: -0.006	inactive: -0.014	inactive: -0.006	inactive: 0.015	inactive: 0.02	inactive: -0.086	inactive: 0.053	inactive: 0.039	inactive: -0.012
SLC25A37 (UniProt Q9NYZ2)	inactive: -0.006	inactive: 0.011	inactive: -0.076	inactive: -0.022	inactive: 0.066	inactive: 0.028	inactive: 0.007	inactive: -0.01	inactive: -0.014	inactive: 0.162
SLC9A3R1 (UniProt O14745)	inactive: 0.004	inactive: 0.001	inactive: -0.002	inactive: -0.02	inactive: -0.013	inactive: -0.014	inactive: 0.013	inactive: 0.005	inactive: -0.001	inactive: 0.034
SLC44A2 (UniProt Q8IWA5)	inactive: -0.059	inactive: 0.013	inactive: 0.045	inactive: -0.013	inactive: 0.026	inactive: -0.008	inactive: 0.01	inactive: -0.046	inactive: 0.048	inactive: 0.069
SLC25A11 (UniProt Q02978)	inactive: -0.012	inactive: -0.102	inactive: -0.023	inactive: 0	inactive: 0.02	inactive: -0.009	inactive: -0.036	inactive: -0.02	inactive: -0.005	inactive: 0.033
SLC30A5 (UniProt Q8TAD4)	inactive: -0.015	inactive: 0.072	inactive: -0.178	inactive: 0.086	inactive: 0.015	inactive: -0.05	inactive: -0.156	inactive: -0.083	inactive: -0.019	inactive: 0.041

A few values from the list:
SLC29A2 (UniProt Q14542) – log2 fold change [7]: inactive: 0.018
SLK isoform 2 (UniProt Q9H2G2) – log2 fold change (IRAK-1-4 Inhibitor I): inactive: 0.001
